The experiment relates to CD2F1 mice, L1210 leukemia ip, survival T/C. The experiment is described as follows: NCI In Vivo Anticancer Drug Screen. Data for tumor model L1210 Leukemia (intraperitoneal) in CD2F1 (CDF1) mice. To be noted: T/C endpoint: mean survival time, higher T/C = longer survival. Here is the method: The antitumor activity of compounds was measured in mice bearing transplantable tumors. Survival or tumor size were measured and the results are expressed as the measurement made in the treated group (T) divided by the measurement made in the vehicle treated control group (C). The tumor model used in this assay is L1210 Leukemia (intraperitoneal) in CD2F1 (CDF1) mice

Setting [1] is: dose: 100.0 mg/kg/injection, schedule: Q01DX001 (ip), vehicle: saline with Tween-80.
The mark [2] stands for this setting: dose: 200.0 mg/kg/injection, schedule: Q01DX001 (ip), vehicle: saline with Tween-80.

Structures are written as SMILES. The list is a part of this screen's results and no random one: it covers a few groups of compounds. Not every dose and run of a compound is shown. T/C: endpoint of the treated group in % of that of the vehicle group. For survival time, this PubChem deposit counts one and a half times the control or more as active, and values a quarter to a half above the control carry no call in these data; other NCI protocols may use other cut-offs. Some entries show no survivor count and are marked so; the dose need not have been tolerated. Schedule codes are those of the source, read here as Q, the interval in days (D) or hours (H), X, the number of doses. Some doses were run more than once; their values stand side by side, smallest first. Some schedules carry Z or #; the key to these is not given.

For the compound `ClCCNCCCNCCCl`, the T/C is 147 % of control [survivor count not shown] (dose: 36.0 mg/kg/injection, schedule: Q01DX Z (ip), vehicle: saline); 180 % of control [survivor count not shown] (dose: 54.0 mg/kg/injection, schedule: Q01DX Z (ip), vehicle: saline); 147 % of control [survivor count not shown] (dose: 81.0 mg/kg/injection, schedule: Q01DX Z (ip), vehicle: saline); 115 % of control [survivor count not shown] (dose: 121.0 mg/kg/injection, schedule: Q01DX Z (ip), vehicle: saline).
Turning to `CC(COC(=O)C(O)(c1ccccc1)c1ccccc1)N1CCCCCCCC1` (stereo not given), the T/C was 96 % of control [survivor count not shown] under setting [1]; 106 % of control [survivor count not shown] under setting [2]; 95 % of control [survivor count not shown] (dose: 400.0 mg/kg/injection, schedule: Q01DX001 (ip), vehicle: saline with Tween-80).
As for `ClCCCCC(CCl)NCCCl` (stereo not given), the T/C reads like this: (dose: 12.5 mg/kg/injection, schedule: Q01DX007 (ip), vehicle: saline) 120 % of control [survivor count not shown]; (dose: 12.5 mg/kg/injection, schedule: Q01DX009 (ip), vehicle: saline) 102 [survivor count not shown], 108 [survivor count not shown], 132 % of control [survivor count not shown]; (dose: 12.5 mg/kg/injection, schedule: Q03DX003 (ip), vehicle: saline) 110 % of control [survivor count not shown]; (dose: 12.5 mg/kg/injection, schedule: Q04DX003 (ip), vehicle: saline) 110 % of control [survivor count not shown]; (dose: 25.0 mg/kg/injection, schedule: Q01DX007 (ip), vehicle: saline) 142 % of control [survivor count not shown]; (dose: 25.0 mg/kg/injection, schedule: Q01DX009 (ip), vehicle: saline) 112 [survivor count not shown], 148 [survivor count not shown], 154 % of control [survivor count not shown]. Further, the T/C by setting is: (dose: 25.0 mg/kg/injection, schedule: Q03DX003 (ip), vehicle: saline) 125 % of control [survivor count not shown]; (dose: 25.0 mg/kg/injection, schedule: Q04DX003 (ip), vehicle: saline) 124 % of control [survivor count not shown]; (dose: 50.0 mg/kg/injection, schedule: Q01DX007 (ip), vehicle: saline) 159 % of control [survivor count not shown]; (dose: 50.0 mg/kg/injection, schedule: Q01DX009 (ip), vehicle: saline) 98 [survivor count not shown], 118 [survivor count not shown], 143 % of control [survivor count not shown]; (dose: 50.0 mg/kg/injection, schedule: Q03DX003 (ip), vehicle: saline) 139 % of control [survivor count not shown]; (dose: 50.0 mg/kg/injection, schedule: Q04DX003 (ip), vehicle: saline) 153 % of control [survivor count not shown].
`CN1C2CCC(OC(=O)C(O)(c3ccccc3)C3CCCC3)C1CC2` (stereo not given): the T/C reads like this: (dose: 18.7 mg/kg/injection, schedule: Q04DX002 (ip), vehicle: saline with Tween-80) 98 % of control [survivor count not shown]; (dose: 37.5 mg/kg/injection, schedule: Q04DX002 (ip), vehicle: saline with Tween-80) 98 % of control [survivor count not shown]; (dose: 75.0 mg/kg/injection, schedule: Q04DX002 (ip), vehicle: saline with Tween-80) 103 % of control [survivor count not shown].
For `N#CC(C#N)=Cc1ccccc1Cl`, the T/C reads like this: (dose: 12.5 mg/kg/injection, schedule: Q01DX009 (ip), vehicle: saline with Tween-80) 95 % of control [survivor count not shown]; (dose: 25.0 mg/kg/injection, schedule: Q01DX009 (ip), vehicle: saline with Tween-80) 95 % of control [survivor count not shown].
Take `CN1C2CCC1CC(OC(=O)C(O)(c1ccccc1)c1ccccc1)C2` (stereo not given): the T/C runs as follows: (dose: 50.0 mg/kg/injection, schedule: Q04DX002 (ip), vehicle: saline with Tween-80) 89 % of control [survivor count not shown]; under setting [1], 96 % of control [survivor count not shown]; (dose: 100.0 mg/kg/injection, schedule: Q04DX002 (ip), vehicle: saline with Tween-80) 101 % of control [survivor count not shown]; under setting [2], 98 % of control [survivor count not shown]; (dose: 200.0 mg/kg/injection, schedule: Q04DX002 (ip), vehicle: saline with Tween-80) 101 % of control [survivor count not shown].
Turning to `BrCCN(CCBr)Cc1ccccc1`, the T/C is, setting by setting: (dose: 1.5 mg/kg/injection, schedule: Q04DX003 (ip), vehicle: other) 104 % of control [survivor count not shown]; (dose: 2.6 mg/kg/injection, schedule: Q04DX003 (ip), vehicle: saline sonified) 106 % of control [survivor count not shown]; (dose: 3.0 mg/kg/injection, schedule: Q04DX003 (ip), vehicle: other) 102 % of control [survivor count not shown]; (dose: 4.0 mg/kg/injection, schedule: Q04DX003 (ip), vehicle: saline sonified) 117 % of control [survivor count not shown]; (dose: 6.0 mg/kg/injection, schedule: Q04DX003 (ip), vehicle: other) 107 % of control [survivor count not shown]; (dose: 6.0 mg/kg/injection, schedule: Q04DX003 (ip), vehicle: saline sonified) 101 % of control [survivor count not shown]. Besides, the T/C by setting is: (dose: 9.0 mg/kg/injection, schedule: Q04DX003 (ip), vehicle: saline sonified) 94 % of control [survivor count not shown]; (dose: 12.0 mg/kg/injection, schedule: Q04DX003 (ip), vehicle: other) 105 % of control [survivor count not shown]; (dose: 24.0 mg/kg/injection, schedule: Q04DX003 (ip), vehicle: other) 86 % of control [survivor count not shown].
In the case of `OC1(C#CCN(CCCl)CCCl)CCCCC1`, the T/C runs as follows: (dose: 25.0 mg/kg/injection, schedule: Q01DX001 (ip), vehicle: saline) 123 % of control [survivor count not shown]; (dose: 50.0 mg/kg/injection, schedule: Q01DX001 (ip), vehicle: saline) 115 % of control [survivor count not shown].
